Results deposited as PubChem BioAssay AID1159599 (NIAID, 2016)

- Purpose: 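Effect of knocking down TLR signalling components on Tnf reporter after LPS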
- Cells: mouse RAW264.7 G9 macrophage reporter clone cells
- Reagents: single siRNA against mouse genes
- Timing: 48 to 72 h after siRNA transfection, LPS for the last 16 h
- Treatment: LPS (Salmonella minnesota R595), 16 h before fixation; dose not stated
- Detection: 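Nuclear mCherry from a Tnf promoter reporter imaged after LPS, background removed, robust z-score from per-plate median and MAD, averaged over replicates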
- Scale: Tnf reporter z-score: higher = stronger Tnf promoter reporter signal after LPS
- Hit rule: 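Called active if the mean z-score over replicates passes 1.5 in either direction, up or down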
- Calls: active = strong change either way; inactive = little change
Here is a random part of 756 deposited reagents. Of all reagents, 130 (17%) got an active call. 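Calls are two-sided: actives include siRNAs that raised the Tnf reporter as well as ones that lowered it.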 The numbers tell different reagents against one gene apart. No sequences are given here. Not stated in the record: the amount of reagent.

Against Irak3 #1, the values are Tnf reporter z-score, replicate mean -0.77; inactive.
Irak3 #2 showed Tnf reporter z-score, replicate mean -0.52; inactive.
Irak3 #3 gave Tnf reporter z-score, replicate mean -0.0364; inactive.
For Irak3 #4, the values are Tnf reporter z-score, replicate mean -0.0172; inactive.
For Irak3 #5, the entry reads Tnf reporter z-score, replicate mean -0.919; inactive.
Against Irak3 #6, the entry reads Tnf reporter z-score, replicate mean -1.55; active.
With knock-down of Ifnar1 #1, the record shows Tnf reporter z-score, replicate mean -1.03; inactive.
Knock-down of Ifnar1 #2 gave: Tnf reporter z-score, replicate mean -1.26; inactive.
Ifnar1 #3 gave Tnf reporter z-score, replicate mean -0.703; inactive.
With knock-down of Ifnar1 #4, the record shows Tnf reporter z-score, replicate mean 1.68; active.
After knock-down of Ifnar1 #5, the record shows Tnf reporter z-score, replicate mean -1.08; inactive.
For Ifnar1 #6, the entry reads Tnf reporter z-score, replicate mean -1.05; inactive.
Tlr9 #1 showed Tnf reporter z-score, replicate mean -0.103; inactive.
For Tlr9 #2 the deposit lists Tnf reporter z-score, replicate mean -2.14; active.
Silencing of Tlr9 #3 resulted in: Tnf reporter z-score, replicate mean 1.59; active.
Against Tlr9 #4, the entry reads Tnf reporter z-score, replicate mean -0.0508; inactive.
With knock-down of Tlr9 #5 the results were Tnf reporter z-score, replicate mean -0.461; inactive.
Tlr9 #6 gave Tnf reporter z-score, replicate mean -1.31; inactive.

Ordered by “Tnf reporter z-score, replicate mean” (high to low): some entries from above
Irak3 #4 | Tnf reporter z-score, replicate mean: -0.0172; Outcome: inactive
Irak3 #5 | Tnf reporter z-score, replicate mean: -0.919; Outcome: inactive

The results go on.
Il6 #1 scored Tnf reporter z-score, replicate mean 0.427; inactive.
Knock-down of Il6 #2 resulted in: Tnf reporter z-score, replicate mean -0.891; inactive.
For Il6 #3, the entry reads Tnf reporter z-score, replicate mean 0.639; inactive.
Silencing of Il6 #4 gave: Tnf reporter z-score, replicate mean -0.747; inactive.
Il6 #5 showed Tnf reporter z-score, replicate mean 0.503; inactive.
With knock-down of Il6 #6, the record shows Tnf reporter z-score, replicate mean -0.00514; inactive.
With knock-down of Elk4 #1 the results were Tnf reporter z-score, replicate mean -0.114; inactive.
After knock-down of Elk4 #2, the record shows Tnf reporter z-score, replicate mean -0.0486; inactive.
Depletion of Elk4 #3 gave: Tnf reporter z-score, replicate mean -0.4; inactive.
Elk4 #4 showed Tnf reporter z-score, replicate mean 0.525; inactive.
For Elk4 #5 the deposit lists Tnf reporter z-score, replicate mean -1.32; inactive.
Elk4 #6 gave Tnf reporter z-score, replicate mean -1.26; inactive.
With knock-down of Tlr7 #1, the screen gave Tnf reporter z-score, replicate mean -0.987; inactive.
Against Tlr7 #2, the values are Tnf reporter z-score, replicate mean -1.33; inactive.
Depletion of Tlr7 #3 resulted in: Tnf reporter z-score, replicate mean -0.452; inactive.
Tlr7 #4 showed Tnf reporter z-score, replicate mean 0.385; inactive.
Against Tlr7 #5, the entry reads Tnf reporter z-score, replicate mean -0.152; inactive.
Against Tlr7 #6 the deposit lists Tnf reporter z-score, replicate mean 0.336; inactive.
